The experiment has as its target Cbp1ΔHTH3 (Cbp1 with the third helix-turn-helix domain deleted) (S. solfataricus P2). As to the kind of experiment: native gel or EMSA; 800 pM 5'-radiolabelled dsDNA with one CRISPR repeat (A, D or F) or a non-canonical ISC1229 site, with 20 bp flanks (20 or 2 bp downstream); 12.5 nM Cbp1 (25 nM ΔHTH3), 3.125 to 25 nM Cren7; 10 mM MOPS pH 6.5, 100 mM KCl, 10 mM MgCl2, BSA, 10% glycerol, 5 mM DTT; 5 min at 75 °C; 6% native Tris-Glycine gel; both purified. (In EMSA bound probe runs differently from free probe, usually more slowly.)

In article PMC10883916, “Cbp1 and Cren7 form chromatin-like structures that ensure efficient transcription of long CRISPR arrays” one finds binding data, which are given here for one molecule.

Results are given in words; binding and its absence hold for the method and conditions named.

B1: Cren7, S. solfataricus (protein, UniProt Q97ZE3 1-60)
chain: MSSGKKPVKVKTPAGKEAELVPEKVWALAPKGRKGVKIGLFKDPETGKYFRHKLPDDYPI
B1: the binding result is “no binding (tested: 12.5 to 25 nM Cren7 with 25 nM ΔHTH3)”.
